Taken from: PubChem BioAssay AID1159584 (Peter MacCallum Cancer Centre, 2016)

- Assay: 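Genes that CDH1-null MCF10A cells selectively depend on to survive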 (primary screen)
- System: human MCF10A breast epithelial cells, parental and CDH1-null
- Reagents: siRNA against human genes
- Measurement: 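ATP luminescence (CellTiter-Glo) viability per line relative to mean mock wells over all plates, and the ratio of CDH1-null to parental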
- Direction: CDH1-null / parental viability ratio: higher = CDH1-null cells survive relatively better than parental; CDH1-null viability vs mock: higher = more viable CDH1-null cells; parental viability vs mock: higher = more viable parental cells
The deposit covers about 18,000 reagents; below is a part drawn at random. The record does not give: the amount of reagent, the time to read-out.

| target gene | CDH1-null / parental viability ratio | CDH1-null viability vs mock (fraction of mock) | parental viability vs mock (fraction of mock) |
| --- | --- | --- | --- |
| SCGB1D2 | 1.19 | 1 | 0.84 |
| DKK2 | 1.31 | 0.76 | 0.58 |
| MINDY2 | 0.99 | 0.88 | 0.89 |
| CGREF1 | 1.08 | 0.56 | 0.52 |
| PLEKHS1 | 1.23 | 0.64 | 0.52 |
| CTSW | 1.43 | 0.76 | 0.53 |
| TES | 1.21 | 0.63 | 0.52 |
| MCEMP1 | 0.85 | 0.46 | 0.54 |
| COPS9 | 0.92 | 0.67 | 0.73 |
| CHCHD1 | 1.2 | 0.71 | 0.59 |
| TUBB2A | 0.64 | 0.52 | 0.81 |
| ZBTB37 | 0.69 | 0.72 | 1.04 |
| CFTR | 1.04 | 0.94 | 0.9 |
| CNPY2 | 0.91 | 0.8 | 0.88 |
| TRAPPC1 | 0.7 | 0.47 | 0.67 |
| PILRA | 0.95 | 0.84 | 0.88 |
| PADI3 | 0.7 | 0.57 | 0.81 |
| ARHGEF25 | 1.1 | 1.02 | 0.93 |
| CNTF | 1.1 | 0.9 | 0.82 |
| TBXAS1 | 0.93 | 0.64 | 0.69 |
| SNRNP25 | 0.67 | 0.38 | 0.57 |
| OR2B3 | 1 | 0.68 | 0.68 |
| SETD7 | 1.16 | 1.02 | 0.88 |
| TIMM10 | 1.06 | 0.92 | 0.87 |
| PSMG1 | 0.84 | 0.81 | 0.96 |
| EGLN3 | 0.84 | 0.48 | 0.57 |
| GRB14 | 0.86 | 0.5 | 0.58 |
| SRPRA | 0.58 | 0.36 | 0.62 |
